Assay results as given in US9220680B2, “Compositions and methods for localized drug delivery through mammary papillae” (South Dakota State University, priority 2012, dated 2015).
Some entries share one result that the patent states for a list of compounds.

Experiment: In vitro penetration and permeation via excised porcine mammary papilla, Franz diffusion cell (Example 1)
Format: in vitro ADME
Settings: saturated solution in ethanol:water (50:50), 48 h, mean ± SEM
Protocol: Drug penetration and permeation via mammary papillae was performed in a Franz diffusion cell using excised porcine mammary papilla. […] The transport studies were performed at time points for 6 and 48 hours.
In a separate study to evaluate the drug retention and disposition, the treatment was removed after 6 hours and the study was continued until the 48 hour mark. Samples were withdrawn from the receptor compartment at different time points. At the end of study, the mammary papilla was cut to 2 mm thick cylindrical sections from the top to the base of the tissue and was digested using a tissue solubilizer. The drug concentrations were determined by liquid scintillation counting.
Methods for the preparation of porcine mammary papilla. Freshly excised strips of porcine mammary papilla (6-7 months old animals) were washed with deionized water followed by removal of subcutaneous fatty tissue using a scalpel. Keeping the mammary papilla in the center, 3 cm×3 cm sized specimens of the tissue were excised, subcutaneous fat tissue was removed, and the tissue was frozen at −20° C. until used for the drug penetration and permeation studies. […]
Extraction of drugs from the mammary papilla. […] These sections were homogenized, the drug was extracted, and the drug concentration was determined by radioactive counts.

O=c1[nH]cc(F)c(=O)[nH]1 [5FU, 5-fluorouracil]
Lag time (n=3, listed as 5 FU): 7 to 8 h

C[C@]12CC[C@@H]3c4ccc(O)cc4CC[C@H]3[C@@H]1CC[C@@H]2O [EST, estradiol]
Lag time (n=3): 7 to 8 h
